According to PubChem BioAssay AID330 (DTP/NCI, 2004):
The list shows only some results of the screen, not a fair sample: it covers a few groups of compounds. Not every dose and run of a compound is shown. T/C gives the treated animals as a percentage of the vehicle group. Where survival is the endpoint, this PubChem deposit counts one and a half times the control or more as active, and values a quarter to a half above the control carry no call in these data; other NCI protocols may use other cut-offs. Schedules are NCI's codes, taken here to give the interval after Q, in days (D) or hours (H), and the number of doses after X. Some T/C values are marked as having no survivor count here; that says nothing about deaths at the dose. Some doses were run more than once; their values stand side by side, smallest first.

Tested on: P388 leukemia ip, CD2F1 mice, survival T/C
Experiment: NCI In Vivo Anticancer Drug Screen. Data for tumor model P388 Leukemia (intraperitoneal) in CD2F1 (CDF1) mice
Conditions: T/C endpoint: median survival time, higher T/C = longer survival
[1] = dose: 50.0 mg/kg/injection, schedule: Q04DX003 (ip), vehicle: Klucel (hydroxypropylcellulose) (HPC)
[2] = dose: 100.0 mg/kg/injection, schedule: Q04DX003 (ip), vehicle: Klucel (hydroxypropylcellulose) (HPC)
[3] = dose: 200.0 mg/kg/injection, schedule: Q04DX003 (ip), vehicle: Klucel (hydroxypropylcellulose) (HPC)

For `Cc1ccc(CN(CCCl)CCCl)cc1C`, the T/C (dose: 1.32 mg/kg/injection, schedule: Q01DX009 (ip), vehicle: saline) was 133 % of control [survivor count not shown], the T/C (dose: 2.0 mg/kg/injection, schedule: Q01DX009 (ip), vehicle: saline) was 140 % of control [survivor count not shown] and the T/C (dose: 3.0 mg/kg/injection, schedule: Q01DX009 (ip), vehicle: saline) was 177 % of control [survivor count not shown]. The T/C (dose: 4.4 mg/kg/injection, schedule: Q04DX003 (ip), vehicle: saline) was 145 % of control [survivor count not shown], the T/C (dose: 4.5 mg/kg/injection, schedule: Q01DX009 (ip), vehicle: saline) was 166 % of control [survivor count not shown] and the T/C (dose: 10.0 mg/kg/injection, schedule: Q04DX003 (ip), vehicle: saline) was 155 % of control [survivor count not shown]. The T/C (dose: 15.0 mg/kg/injection, schedule: Q04DX003 (ip), vehicle: saline) was 165 % of control [survivor count not shown].
With `CCc1cccc2ccc(N(CCCl)CCCl)cc12` the T/C [1] was 94 % of control [survivor count not shown], the T/C [2] was 100 % of control [survivor count not shown] and the T/C [3] was 100 % of control [survivor count not shown].
`O=C(O)CCCCc1ccc(N(CCCl)CCCl)cc1` was tested, and the T/C (dose: 3.0 mg/kg/injection, schedule: Q01DX009 (ip), vehicle: saline with Tween-80) was 109 % of control [survivor count not shown], the T/C (dose: 6.0 mg/kg/injection, schedule: Q01DX009 (ip), vehicle: saline with Tween-80) was 122 % of control [survivor count not shown] and the T/C (dose: 12.0 mg/kg/injection, schedule: Q01DX009 (ip), vehicle: saline with Tween-80) was 145 % of control [survivor count not shown]. The T/C (dose: 12.5 mg/kg/injection, schedule: Q01DX009 (ip), vehicle: saline with Tween-80) was 150 % of control [survivor count not shown], the T/C (dose: 16.5 mg/kg/injection, schedule: Q04DX003 (ip), vehicle: saline with Tween-80) was 127 % of control [survivor count not shown] and the T/C (dose: 25.0 mg/kg/injection, schedule: Q01DX009 (ip), vehicle: saline with Tween-80) was 195 % of control [survivor count not shown]. For the same molecule, the T/C (dose: 25.0 mg/kg/injection, schedule: Q04DX003 (ip), vehicle: saline with Tween-80) was 136 % of control [survivor count not shown] and the T/C (dose: 37.5 mg/kg/injection, schedule: Q04DX003 (ip), vehicle: saline with Tween-80) was 159 % of control [survivor count not shown].
In the case of `Cc1cccc(CN(CCCl)CCCl)c1`, the T/C (dose: 1.25 mg/kg/injection, schedule: Q01DX009 (ip), vehicle: saline) is reported as 137 % of control [survivor count not shown], the T/C (dose: 2.5 mg/kg/injection, schedule: Q01DX009 (ip), vehicle: saline) is reported as 155 % of control [survivor count not shown] and the T/C (dose: 5.0 mg/kg/injection, schedule: Q01DX009 (ip), vehicle: saline) is reported as 163 % of control [survivor count not shown]. For the same molecule, the T/C (dose: 10.0 mg/kg/injection, schedule: Q01DX009 (ip), vehicle: saline) was 91 % of control [survivor count not shown].
In the case of `S=P(Cl)(Cl)Cl`, the T/C (dose: 12.5 mg/kg/injection, schedule: Q01DX009 (ip), vehicle: saline) is reported as 100 % of control [survivor count not shown], the T/C (dose: 25.0 mg/kg/injection, schedule: Q01DX009 (ip), vehicle: saline) is reported as 100 % of control [survivor count not shown] and the T/C (dose: 50.0 mg/kg/injection, schedule: Q01DX009 (ip), vehicle: saline) is reported as 90 % of control [survivor count not shown].
With `ClCCN(CCCl)c1cccc(CN2CCOCC2)c1` the T/C [1] was 116 % of control [survivor count not shown], the T/C [2] was 122 % of control [survivor count not shown] and the T/C [3] was 136 % of control [survivor count not shown].
For `NC(Cc1cccc(N(CCCl)CCCl)c1)C(=O)O` (configuration not stated), the T/C (dose: 3.12 mg/kg/injection, schedule: Q01DX001 (ip), vehicle: Klucel (hydroxypropylcellulose) (HPC)) was 184 % of control [survivor count not shown], the T/C (dose: 6.25 mg/kg/injection, schedule: Q01DX001 (ip), vehicle: Klucel (hydroxypropylcellulose) (HPC)) was 173 [survivor count not shown] and 266 % of control [survivor count not shown] and the T/C (dose: 12.5 mg/kg/injection, schedule: Q01DX001 (ip), vehicle: Klucel (hydroxypropylcellulose) (HPC)) was 208 [survivor count not shown] and 272 % of control [survivor count not shown]. For the same molecule, the T/C (dose: 12.5 mg/kg/injection, schedule: Q01DX001 (ip), vehicle: saline) was 274 % of control [survivor count not shown] and the T/C (dose: 25.0 mg/kg/injection, schedule: Q01DX001 (ip), vehicle: Klucel (hydroxypropylcellulose) (HPC)) was 260 % of control [survivor count not shown].
In the case of `OC1OC(CN(CCCl)CCCl)C(O)C1O` (configuration not stated), the T/C (dose: 0.78 mg/kg/injection, schedule: Q01DX009 (ip), vehicle: saline) is reported as 101 % of control [survivor count not shown] and the T/C (dose: 1.56 mg/kg/injection, schedule: Q01DX009 (ip), vehicle: saline) is reported as 101 % of control [survivor count not shown].
`O=C(O)c1ccccc1N(CCCl)CCCl` was tested, and the T/C (dose: 25.0 mg/kg/injection, schedule: Q04DX003 (ip), vehicle: Klucel (hydroxypropylcellulose) (HPC)) was 130 % of control [survivor count not shown], the T/C [1] was 196 % of control [survivor count not shown] and the T/C [2] was 254 % of control [survivor count not shown]. For the same molecule, the T/C [3] was 126 % of control [survivor count not shown].
With `CCOC(=O)N1CCC(=O)CC1` the T/C (dose: 25.0 mg/kg/injection, schedule: Q01DX009 (ip), vehicle: other) was 106 % of control [survivor count not shown], the T/C (dose: 50.0 mg/kg/injection, schedule: Q01DX009 (ip), vehicle: other) was 100 % of control [survivor count not shown] and the T/C (dose: 100.0 mg/kg/injection, schedule: Q01DX009 (ip), vehicle: other) was 99 % of control [survivor count not shown]. For the same molecule, the T/C (dose: 200.0 mg/kg/injection, schedule: Q01DX009 (ip), vehicle: other) was 103 % of control [survivor count not shown].
`C1CCNCC1.O=C(O)C(O)c1ccc(N(CCCl)CCCl)cc1` (configuration not stated) was tested, and the T/C (dose: 12.5 mg/kg/injection, schedule: Q01DX009 (ip), vehicle: Klucel (hydroxypropylcellulose) (HPC)) was 141 % of control [survivor count not shown], the T/C (dose: 25.0 mg/kg/injection, schedule: Q01DX009 (ip), vehicle: Klucel (hydroxypropylcellulose) (HPC)) was 150 % of control [survivor count not shown] and the T/C (dose: 50.0 mg/kg/injection, schedule: Q01DX009 (ip), vehicle: Klucel (hydroxypropylcellulose) (HPC)) was 184 [survivor count not shown] and 192 % of control [survivor count not shown].
`O=C(O)Cc1c[nH]c2ccc(N(CCCl)CCCl)cc12` was tested, and the T/C (dose: 0.14 mg/kg/injection, schedule: Q01DX009 (ip), vehicle: saline with Tween-80) was 120 % of control [survivor count not shown], the T/C (dose: 0.22 mg/kg/injection, schedule: Q01DX009 (ip), vehicle: saline with Tween-80) was 134 % of control [survivor count not shown] and the T/C (dose: 0.33 mg/kg/injection, schedule: Q01DX009 (ip), vehicle: saline with Tween-80) was 149 % of control [survivor count not shown]. For the same molecule, the T/C (dose: 0.5 mg/kg/injection, schedule: Q01DX009 (ip), vehicle: saline with Tween-80) was 163 % of control [survivor count not shown], the T/C (dose: 2.6 mg/kg/injection, schedule: Q04DX003 (ip), vehicle: saline with Tween-80) was 185 % of control [survivor count not shown] and the T/C (dose: 4.0 mg/kg/injection, schedule: Q04DX003 (ip), vehicle: saline with Tween-80) was 180 % of control [survivor count not shown]. The T/C (dose: 6.0 mg/kg/injection, schedule: Q04DX003 (ip), vehicle: saline with Tween-80) was 220 % of control [survivor count not shown] and the T/C (dose: 9.0 mg/kg/injection, schedule: Q04DX003 (ip), vehicle: saline with Tween-80) was 110 % of control [survivor count not shown].
In the case of `Cc1oc2ccccc2c(=O)c1CN(CCCl)CCCl`, the T/C (dose: 30.0 mg/kg/injection, schedule: Q01DX005 (ip), vehicle: saline with Tween-80) is reported as 158 % of control, the T/C (dose: 60.0 mg/kg/injection, schedule: Q01DX005 (ip), vehicle: saline with Tween-80) is reported as 137 % of control and the T/C (dose: 120.0 mg/kg/injection, schedule: Q01DX005 (ip), vehicle: saline with Tween-80) is reported as 161 % of control.
